Assay results from patent US7700741B2, “High affinity anti-N1,N12-diacetylspermine monoclonal antibody” (Trans Genic Inc., priority 2005, dated 2010).
Some of these results come from one statement about several compounds together. At least one structure is not confirmed: it was looked up by name or label, or the drawing left a doubt.

Test system: anti-DiAcSpm monoclonal antibody CN647
Assay: Crossreactivity test on cloned wells (culture supernatant of CN647 strain)
Format: binding, mouse
Conditions: all three cloned wells, one designated CN647; FIG. 3
Procedure: Briefly, cells were diluted with 20% FCS-containing RPMI medium to a density of 2.5 cells/ml and added to two 96-well culture plates at 200 μl/well. After five days, single colonies were examined. As a result, a single colony was confirmed in 17 wells out of the two 96-well plates. After 10 days, antibody titers to DiAcSpm were measured in culture supernatants by the method described in Experimental Example 2. Three wells were positive. Cells in these three wells were cultured further and tested for crossreactivities with AcSpm, N^1-AcSpd, N^8-AcSpd, DiAcSpd and AcPut by the method described in Experimental Example 3. […] Thus, antibodies sufficient to achieve the object have been obtained (FIG. 3). One of them was designated “established clone CN647”.
Antibody titers in diluted culture supernatants were measured by the method described in Experimental Example 2. Based on the results, the dilution rate with which the absorbance at 492 nm becomes 1 was selected. To each well of dilution plates, 70 μl of culture supernatant diluted at the dilution rate selected above and 70 μl of DiAcSpm solution with serially varied concentration or a structure analog of DiAcSpm (N^1-AcSpm, N^1-AcSpd, DiAcSpd, or the like) with serially varied concentration were mixed and added, and then left at 25° C. for 1 hour for pre-reaction. […] Then, absorbances at 492 nm were measured with an ELISA reader.

SMILES | 50% inhibition activity of DiAcSpm relative to that of the analog
CC(=O)NCCCCN [AcPut] | more than 500,000 times
CC(=O)NCCCCNCCCN [N8-AcSpd, N^8-acetylspermidine] | more than 500,000 times
